No constants are given. Whether binding was seen depends on the method and setting.
Tests used:
[1] = biological target: recombinant truncated CHK2 WT (residues 70 to 512) (human) (UniProt O96017); assay: SEC; analytical SEC of the purified proteins; one major peak corresponding to 65 kDa; both purified
[2] = biological target: recombinant truncated CHK2 WT (residues 70 to 512) (human) (UniProt O96017); assay: dynamic light scattering; 0.15 mg·ml^−1 in SEC buffer, centrifuged at 10,000g; particle size at resting temperature (start of the 20 to 90 °C ramp) and at time 0 at 42 °C; both purified
[3] = biological target: recombinant truncated CHK2 p.I157T (residues 70 to 512) (human) (UniProt O96017); assay: SEC; analytical SEC of the purified proteins; one major peak corresponding to 65 kDa; both purified
[4] = biological target: recombinant truncated CHK2 p.I157T (residues 70 to 512) (human) (UniProt O96017); assay: dynamic light scattering; 0.15 mg·ml^−1 in SEC buffer, centrifuged at 10,000g; particle size at resting temperature (start of the 20 to 90 °C ramp) and at time 0 at 42 °C; both purified

Sequences of proteins named here, by UniProt entry; tags and fusion partners are left off. A change or cut given only in a name is not applied to a line headed by its entry. A line that says so, or that is headed by a name, gives the form on record, which may keep a tag or linker. Residues count along the entry.
recombinant truncated CHK2 WT (residues 70 to 512) (O96017, residues 70-512): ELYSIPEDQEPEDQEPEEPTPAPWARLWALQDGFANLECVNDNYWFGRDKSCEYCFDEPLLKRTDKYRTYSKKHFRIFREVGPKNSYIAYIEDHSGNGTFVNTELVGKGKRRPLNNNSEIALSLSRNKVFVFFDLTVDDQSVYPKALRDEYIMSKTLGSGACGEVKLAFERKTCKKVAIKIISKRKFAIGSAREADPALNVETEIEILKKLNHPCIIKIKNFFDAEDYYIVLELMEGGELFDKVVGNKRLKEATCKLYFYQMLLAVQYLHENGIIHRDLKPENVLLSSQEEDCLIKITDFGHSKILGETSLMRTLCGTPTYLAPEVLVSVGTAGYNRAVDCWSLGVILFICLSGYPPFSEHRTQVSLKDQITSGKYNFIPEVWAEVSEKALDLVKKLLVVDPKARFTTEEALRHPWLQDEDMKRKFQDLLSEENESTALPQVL
recombinant truncated CHK2 p.I157T (residues 70 to 512) (O96017-1, form named): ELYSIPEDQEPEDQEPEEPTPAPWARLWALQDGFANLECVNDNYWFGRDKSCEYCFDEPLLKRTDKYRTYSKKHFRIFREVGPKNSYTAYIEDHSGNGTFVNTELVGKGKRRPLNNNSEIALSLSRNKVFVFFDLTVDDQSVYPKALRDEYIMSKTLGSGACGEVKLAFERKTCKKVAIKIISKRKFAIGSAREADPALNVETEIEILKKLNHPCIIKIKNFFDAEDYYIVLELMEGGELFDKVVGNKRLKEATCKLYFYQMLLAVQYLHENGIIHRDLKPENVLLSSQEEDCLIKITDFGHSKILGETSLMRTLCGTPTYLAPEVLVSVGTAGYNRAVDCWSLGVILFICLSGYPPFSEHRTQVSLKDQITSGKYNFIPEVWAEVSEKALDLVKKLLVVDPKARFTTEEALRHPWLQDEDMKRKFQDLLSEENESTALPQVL

Substance | binding [1] | binding [2] | binding [3] | binding [4]
recombinant truncated CHK2 WT (residues 70 to 512) (from UniProt O96017-1 70-512) (domain or fragment) | no binding | no binding (tested: 0.15 mg·ml^−1) | – | –
recombinant truncated CHK2 p.I157T (residues 70 to 512) (from UniProt O96017-1 70-512) (domain or fragment) | – | – | no binding | no binding (tested: 0.15 mg·ml^−1)
